Source: patent US20090123940A1, “MOLECULES INVOLVED IN SYNAPTOGENESIS AND USES THEREFOR” (THE JOHNS HOPKINS UNIVERSITY, priority 2007, published 2009)
No constants are given. Whether binding was seen depends on the method and setting. For some assays here: In cells and extracts the contact can be indirect. Some results given as binding are weak or reduced against the parent protein; the word gives no strength. For some assays here: Where a sequence is shown, tags or fusion partners need not be part of it.

Chains of the proteins cited; added tags and fusions are not shown. Lines headed by an entry give the natural chain unless they say otherwise; changes in a name come on top. A line that says so, or that is headed by a name, gives the form on record, which may keep a tag or linker. Residues count along the entry.
UniProt P19491, residues 22-883: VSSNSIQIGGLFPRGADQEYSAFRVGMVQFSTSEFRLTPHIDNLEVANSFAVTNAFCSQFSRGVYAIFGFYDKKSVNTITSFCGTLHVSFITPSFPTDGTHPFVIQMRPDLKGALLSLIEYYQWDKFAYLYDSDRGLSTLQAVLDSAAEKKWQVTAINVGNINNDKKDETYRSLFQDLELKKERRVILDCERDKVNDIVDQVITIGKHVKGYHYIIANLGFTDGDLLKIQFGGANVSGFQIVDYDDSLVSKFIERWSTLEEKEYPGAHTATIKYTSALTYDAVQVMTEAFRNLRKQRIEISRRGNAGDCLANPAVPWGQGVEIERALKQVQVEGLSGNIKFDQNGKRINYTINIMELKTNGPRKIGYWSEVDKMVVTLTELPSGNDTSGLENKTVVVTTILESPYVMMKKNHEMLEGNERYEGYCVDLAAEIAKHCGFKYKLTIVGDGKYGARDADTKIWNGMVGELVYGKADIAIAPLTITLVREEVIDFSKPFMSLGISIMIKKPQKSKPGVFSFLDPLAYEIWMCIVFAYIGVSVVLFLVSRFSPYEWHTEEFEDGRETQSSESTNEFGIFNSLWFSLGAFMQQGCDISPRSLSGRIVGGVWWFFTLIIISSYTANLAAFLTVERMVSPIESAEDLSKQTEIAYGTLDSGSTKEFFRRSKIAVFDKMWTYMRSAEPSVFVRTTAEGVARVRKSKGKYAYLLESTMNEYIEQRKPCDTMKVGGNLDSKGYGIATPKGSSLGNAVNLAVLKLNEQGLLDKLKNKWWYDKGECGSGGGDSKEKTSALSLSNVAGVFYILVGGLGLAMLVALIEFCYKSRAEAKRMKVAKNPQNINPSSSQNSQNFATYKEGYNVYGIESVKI
GluR1-HA (HA tagged GluR1 of Example 10) (P42261, residues 19-906): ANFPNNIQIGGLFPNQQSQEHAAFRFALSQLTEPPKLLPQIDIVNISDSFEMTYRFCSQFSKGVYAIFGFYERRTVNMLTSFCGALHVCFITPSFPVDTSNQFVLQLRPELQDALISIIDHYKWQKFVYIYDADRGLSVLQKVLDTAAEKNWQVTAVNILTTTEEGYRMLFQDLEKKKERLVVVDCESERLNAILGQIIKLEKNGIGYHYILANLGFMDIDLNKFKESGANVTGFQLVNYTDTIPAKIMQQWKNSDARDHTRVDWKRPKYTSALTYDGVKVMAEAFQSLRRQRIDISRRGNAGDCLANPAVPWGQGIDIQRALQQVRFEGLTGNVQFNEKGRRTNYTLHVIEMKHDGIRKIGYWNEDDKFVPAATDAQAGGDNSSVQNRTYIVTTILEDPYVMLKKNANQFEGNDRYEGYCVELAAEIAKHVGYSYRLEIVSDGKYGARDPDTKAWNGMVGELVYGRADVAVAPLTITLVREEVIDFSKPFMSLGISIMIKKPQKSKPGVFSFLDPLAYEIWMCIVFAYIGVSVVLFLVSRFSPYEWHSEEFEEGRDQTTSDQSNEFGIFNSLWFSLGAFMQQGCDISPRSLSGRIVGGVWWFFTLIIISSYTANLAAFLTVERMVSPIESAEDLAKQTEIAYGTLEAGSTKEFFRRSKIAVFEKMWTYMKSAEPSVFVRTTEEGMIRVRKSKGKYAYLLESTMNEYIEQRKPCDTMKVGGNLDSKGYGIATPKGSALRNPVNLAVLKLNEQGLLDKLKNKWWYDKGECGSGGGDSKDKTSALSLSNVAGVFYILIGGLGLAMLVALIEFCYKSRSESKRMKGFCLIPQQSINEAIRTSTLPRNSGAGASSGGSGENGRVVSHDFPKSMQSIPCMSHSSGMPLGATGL
HA-GluR1ΔNAR2 (HA-GluR1 construct lacking NAR2) (P42261, form named): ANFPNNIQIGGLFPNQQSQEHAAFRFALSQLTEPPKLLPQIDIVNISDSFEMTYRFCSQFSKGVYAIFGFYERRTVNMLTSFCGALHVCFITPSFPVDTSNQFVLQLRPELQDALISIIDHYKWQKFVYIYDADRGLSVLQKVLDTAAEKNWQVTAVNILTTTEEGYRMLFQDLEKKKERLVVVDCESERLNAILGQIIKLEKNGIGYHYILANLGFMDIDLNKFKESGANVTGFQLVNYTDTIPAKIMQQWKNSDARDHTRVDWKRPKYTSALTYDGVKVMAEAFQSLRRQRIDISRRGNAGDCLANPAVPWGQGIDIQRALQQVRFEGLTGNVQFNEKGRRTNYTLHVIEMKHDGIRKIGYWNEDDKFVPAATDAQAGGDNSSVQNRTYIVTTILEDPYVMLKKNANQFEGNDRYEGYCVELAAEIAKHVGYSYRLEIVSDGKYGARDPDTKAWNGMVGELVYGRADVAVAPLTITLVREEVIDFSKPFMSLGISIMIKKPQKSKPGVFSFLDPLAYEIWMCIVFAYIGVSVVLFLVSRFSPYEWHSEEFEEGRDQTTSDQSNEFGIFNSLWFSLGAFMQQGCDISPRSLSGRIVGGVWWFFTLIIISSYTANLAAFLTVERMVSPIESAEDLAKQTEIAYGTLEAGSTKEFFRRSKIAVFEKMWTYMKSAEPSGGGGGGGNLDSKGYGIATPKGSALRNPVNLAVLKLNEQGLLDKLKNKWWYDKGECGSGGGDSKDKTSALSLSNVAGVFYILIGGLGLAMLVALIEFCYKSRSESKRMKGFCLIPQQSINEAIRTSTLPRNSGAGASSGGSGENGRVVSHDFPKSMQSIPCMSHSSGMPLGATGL
HA-GluR6+NAR1 (HA-GluR6 construct in which the corresponding GluR6 sequence has been replaced with NAR1) (P42260, form named): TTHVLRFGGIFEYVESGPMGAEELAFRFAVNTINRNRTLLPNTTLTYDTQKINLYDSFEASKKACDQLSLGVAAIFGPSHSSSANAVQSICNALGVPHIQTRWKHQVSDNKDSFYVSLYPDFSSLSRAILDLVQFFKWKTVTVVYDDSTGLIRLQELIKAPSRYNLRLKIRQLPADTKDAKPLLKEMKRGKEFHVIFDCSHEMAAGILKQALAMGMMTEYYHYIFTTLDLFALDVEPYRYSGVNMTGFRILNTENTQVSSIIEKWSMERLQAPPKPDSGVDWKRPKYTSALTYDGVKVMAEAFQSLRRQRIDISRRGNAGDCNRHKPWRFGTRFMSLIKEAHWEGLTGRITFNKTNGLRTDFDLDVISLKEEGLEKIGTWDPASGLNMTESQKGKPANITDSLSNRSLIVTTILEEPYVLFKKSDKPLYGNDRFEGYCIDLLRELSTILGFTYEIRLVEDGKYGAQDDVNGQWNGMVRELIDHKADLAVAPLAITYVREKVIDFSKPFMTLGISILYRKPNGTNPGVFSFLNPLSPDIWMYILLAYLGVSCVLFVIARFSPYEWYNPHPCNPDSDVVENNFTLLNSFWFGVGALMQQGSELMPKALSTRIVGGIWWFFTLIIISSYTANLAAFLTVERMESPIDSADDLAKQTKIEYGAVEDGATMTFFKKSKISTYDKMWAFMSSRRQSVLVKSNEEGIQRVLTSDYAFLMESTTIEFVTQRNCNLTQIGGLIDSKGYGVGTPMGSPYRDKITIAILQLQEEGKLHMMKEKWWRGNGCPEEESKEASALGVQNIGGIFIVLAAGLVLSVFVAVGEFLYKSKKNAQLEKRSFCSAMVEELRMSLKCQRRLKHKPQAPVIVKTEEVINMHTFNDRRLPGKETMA
UniProt P19492, residues 23-888: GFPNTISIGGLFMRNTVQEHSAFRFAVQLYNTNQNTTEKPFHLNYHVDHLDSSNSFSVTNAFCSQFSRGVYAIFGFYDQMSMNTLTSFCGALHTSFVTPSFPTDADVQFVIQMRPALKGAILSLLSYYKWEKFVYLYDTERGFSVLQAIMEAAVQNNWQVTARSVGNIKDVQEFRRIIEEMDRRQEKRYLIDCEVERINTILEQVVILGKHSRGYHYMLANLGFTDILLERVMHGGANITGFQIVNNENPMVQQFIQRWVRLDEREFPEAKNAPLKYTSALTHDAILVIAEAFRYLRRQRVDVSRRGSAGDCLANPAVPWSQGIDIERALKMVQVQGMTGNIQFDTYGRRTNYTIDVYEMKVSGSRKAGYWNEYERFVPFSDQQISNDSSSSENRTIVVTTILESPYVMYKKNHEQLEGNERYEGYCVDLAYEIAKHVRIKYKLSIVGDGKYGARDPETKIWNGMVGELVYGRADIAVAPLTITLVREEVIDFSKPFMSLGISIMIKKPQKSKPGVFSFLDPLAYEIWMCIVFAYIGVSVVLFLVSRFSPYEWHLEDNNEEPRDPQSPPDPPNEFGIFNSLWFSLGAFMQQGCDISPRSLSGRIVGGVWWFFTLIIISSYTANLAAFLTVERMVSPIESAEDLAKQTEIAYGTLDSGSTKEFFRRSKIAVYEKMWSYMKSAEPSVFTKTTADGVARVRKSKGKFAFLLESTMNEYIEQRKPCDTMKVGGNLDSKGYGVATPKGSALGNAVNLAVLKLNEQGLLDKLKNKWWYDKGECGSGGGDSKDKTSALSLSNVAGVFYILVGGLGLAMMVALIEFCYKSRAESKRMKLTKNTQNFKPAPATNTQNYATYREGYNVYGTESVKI
UniProt P19490: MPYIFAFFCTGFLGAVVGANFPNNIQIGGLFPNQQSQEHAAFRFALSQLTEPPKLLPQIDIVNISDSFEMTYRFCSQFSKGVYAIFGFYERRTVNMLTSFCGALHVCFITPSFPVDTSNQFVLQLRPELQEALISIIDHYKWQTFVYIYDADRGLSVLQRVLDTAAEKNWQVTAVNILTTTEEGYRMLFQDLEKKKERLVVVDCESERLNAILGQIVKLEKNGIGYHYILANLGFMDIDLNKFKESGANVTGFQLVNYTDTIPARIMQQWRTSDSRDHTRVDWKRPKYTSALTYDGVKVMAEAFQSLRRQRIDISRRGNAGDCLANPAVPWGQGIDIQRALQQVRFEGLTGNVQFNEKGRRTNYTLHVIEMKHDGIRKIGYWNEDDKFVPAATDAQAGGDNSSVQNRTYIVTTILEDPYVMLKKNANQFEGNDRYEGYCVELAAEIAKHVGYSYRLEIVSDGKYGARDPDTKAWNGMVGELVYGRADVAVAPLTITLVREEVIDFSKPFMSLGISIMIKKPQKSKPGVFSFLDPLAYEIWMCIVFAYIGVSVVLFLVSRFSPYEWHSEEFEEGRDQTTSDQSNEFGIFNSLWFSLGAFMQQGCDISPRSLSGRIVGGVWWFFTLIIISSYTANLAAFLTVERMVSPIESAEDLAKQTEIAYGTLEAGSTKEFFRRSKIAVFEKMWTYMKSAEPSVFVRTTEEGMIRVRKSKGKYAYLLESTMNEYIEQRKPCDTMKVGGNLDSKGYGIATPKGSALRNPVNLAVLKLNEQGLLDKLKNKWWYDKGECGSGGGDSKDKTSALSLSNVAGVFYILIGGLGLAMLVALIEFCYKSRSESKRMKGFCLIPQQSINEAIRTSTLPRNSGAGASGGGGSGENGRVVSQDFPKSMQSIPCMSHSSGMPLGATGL

Columns and labels:
[1] = target: AMPA receptor subunit GluR2 (UniProt P19491); assay: co-clustering on transfected COS-7 cells
[2] = target: GluR1-HA (HA tagged GluR1 of Example 10) (UniProt P42261); assay: co-IP from co-transfected HEK293T cells
GluR2-HA = GluR2-HA (UniProt P19491); assay: co-clustering on COS-7 cells co-transfected with NPR-myc and GluR2-HA after PMA (150 nM); diffuse staining without PMA
[3] = target: HA-GluR1ΔNAR2 (HA-GluR1 construct lacking NAR2) (UniProt P42261); assay: co-clustering on the cell surface, immunostaining
[4] = target: HA-GluR6+NAR1 (HA-GluR6 construct in which the corresponding GluR6 sequence has been replaced with NAR1) (UniProt P42260); assay: co-clustering on the cell surface, immunostaining
[5] = target: AMPA receptor subunit GluR3 (UniProt P19492); assay: co-IP from co-transfected HEK-293 cells; unaffected by 1 mM tunicamycin
[6] = target: AMPA receptor subunit GluR2 (UniProt P19491); assay: as above
[7] = target: AMPA receptor subunit GluR3 (UniProt P19492); assay: co-clustering in co-transfected 293 cells, immunostaining
[8] = target: AMPA receptor subunit GluR2 (UniProt P19491); assay: as above
[9] = target: HA-GluR6+NAR1 (HA-GluR6 construct in which the corresponding GluR6 sequence has been replaced with NAR1) (UniProt P42260); assay: co-IP
[10] = target: GST-NAR1 (GST fusion protein of NAR1 of GluR1, from bacteria) (Rattus norvegicus (Rat)) (UniProt P19490); assay: GST pull-down; NAR1 bound Narp more avidly than NAR2
[11] = target: GST-NAR2 (GST fusion protein of NAR2 of GluR1, from bacteria) (Rattus norvegicus (Rat)) (UniProt P19490); assay: as above
[12] = target: T1, GST-tagged GluR1-12mer (GST-G1-12mer); assay: GST pull-down, in vitro binding
T1 sequence: LRRQRIDISRRG

[13] = target: GST-NAR2 (GST fusion protein of NAR2 of GluR1, from bacteria) (Rattus norvegicus (Rat)) (UniProt P19490); assay: GST pull-down, comparison in words

Measured: binding

B1: CM-3, Narp/NPR chimera in which the transmembrane domain of NPR is replaced with the signal peptide of Narp (protein, rat, UniProt O35764 24-494, looked up, not shown: small tags and cut ends)
chain: ASVPLAASPARALPGGTDNASAASAAGAPGPQRSLSALQGAGGSAGPSVLPGEPAASVFPPPPGPLLSRFLCTPLAAACPSGAEQGDAAGERAELLLLQSTAEQLRQTALQQEARIRADRDTIRELTGKLGRCESGLPRGLQDAGPRRDTMADGAWDSPALLVELENAVRALRDRIERIEQELPARGNLSSSAPAPAVPTALHSKMDELEGQLLAKVLALEKERAALSHGSHQQRQEVEKELDALQGRVAELEHGSSAYSPPDAFKVSIPIRNNYMYARVRKAVPELYAFTACMWLRSRSGGSGQGTPFSYSVPGQANEIVLLEAGLEPMELLINDKVAQLPLSLKDSNWHHICIAWTTRDGLWSAYQDGELRGSGENLAAWHPIKPHGILILGQEQDTLGGRFDATQAFVGDIAQFNLWDHALTPAQVLGIANCTGPLMGNVLPWEDKLVEAFGGAKKAAFDVCKRRAKA
binds: [1]

B2: myc-tagged NPR (NPR-myc) (receptor, rat, UniProt O35764 1-494, looked up, not shown: small tags and cut ends)
chain: MKFLAVLLAAGMLAFLGAVICIIASVPLAASPARALPGGTDNASAASAAGAPGPQRSLSALQGAGGSAGPSVLPGEPAASVFPPPPGPLLSRFLCTPLAAACPSGAEQGDAAGERAELLLLQSTAEQLRQTALQQEARIRADRDTIRELTGKLGRCESGLPRGLQDAGPRRDTMADGAWDSPALLVELENAVRALRDRIERIEQELPARGNLSSSAPAPAVPTALHSKMDELEGQLLAKVLALEKERAALSHGSHQQRQEVEKELDALQGRVAELEHGSSAYSPPDAFKVSIPIRNNYMYARVRKAVPELYAFTACMWLRSRSGGSGQGTPFSYSVPGQANEIVLLEAGLEPMELLINDKVAQLPLSLKDSNWHHICIAWTTRDGLWSAYQDGELRGSGENLAAWHPIKPHGILILGQEQDTLGGRFDATQAFVGDIAQFNLWDHALTPAQVLGIANCTGPLMGNVLPWEDKLVEAFGGAKKAAFDVCKRRAKA
binds: [2] | GluR2-HA

B3: Neuronal activity regulated pentraxin (Narp) (ligand)
chain: QAQDNPIPGSRFVCTALPPEAARAGCPLPAMPMQGGALSPEEELRAAVLHWRETVVQQKETLGAQREAIRELTSKLARCEGLAGGKARGTGATGKDTMGDLPRDPGHVVEQLSRSLQTLKDRLESLELQLHTNASNAGLPSDFREVLQRRLGELERQLLRKVAELEDEKSLLHNETSAHRQKTENTLNALLQRVTELERGNSAFKSPDAFKVSLPLRTNYLYGKIKKTLPELYAFTICLWLRSSASPGIGTPFSYAVPGQANEIVLIEWGNNPIELLINDKVAQLPLFVSDGKWHHICITWTTRDGMWEAFQDGEKLGTGENLAPWHPIKPGGVLILGQEQDTVGGRFDATQAFVGELSQFNIWDRVLRAQEIINIANCSTNMPGNIIPWVDNNVDVFGGASKWPVETCEERLLDL
binds: [3] | [4] | [5] | [6] | [7] | [8] | [9]

B4: C-terminal myc-tagged version of Narp (myc-Narp) (ligand, not shown: small tags and cut ends)
chain: QAQDNPIPGSRFVCTALPPEAARAGCPLPAMPMQGGALSPEEELRAAVLHWRETVVQQKETLGAQREAIRELTSKLARCEGLAGGKARGTGATGKDTMGDLPRDPGHVVEQLSRSLQTLKDRLESLELQLHTNASNAGLPSDFREVLQRRLGELERQLLRKVAELEDEKSLLHNETSAHRQKTENTLNALLQRVTELERGNSAFKSPDAFKVSLPLRTNYLYGKIKKTLPELYAFTICLWLRSSASPGIGTPFSYAVPGQANEIVLIEWGNNPIELLINDKVAQLPLFVSDGKWHHICITWTTRDGMWEAFQDGEKLGTGENLAPWHPIKPGGVLILGQEQDTVGGRFDATQAFVGELSQFNIWDRVLRAQEIINIANCSTNMPGNIIPWVDNNVDVFGGASKWPVETCEERLLDL
binds: [10] | [11] | [12] | [13]
